This assay in a line: qHTS Assay for Lipid Storage Modulators in Drosophila S3 Cells.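 On cell number change: cells counted by Cell Tracker Red CMTPX staining in the red channel.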 Conditions: BODIPY lipid droplet fluorescence, 18-24 h; for cell number change: measured here: cell count max response, cells fed with added oleic acid. The gist of the method: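 Drosophila S3 cells loaded with oleic acid (400 uM, as added) and compounds at several concentrations; lipid droplets imaged by 488-nm laser-scanning cytometry, 500–530 nm intensity and object ratio to cell channel. Percent activity normalized to 20 uM Triacsin C.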
On the technique in general: Quantitative high-throughput screening tests each substance at several concentrations.

Setting [1] is: measured here: lipid fluorescence (Fed channel) AC50, cells fed with added oleic acid.
Where [2] appears, read: measured here: cell number channel AC50, cells fed with added oleic acid.

Each structure is given as a SMILES string. This is one part of the list. Further columns of the screen follow, without active or inactive calls. Compounds called inactive in the main read-out are mostly missing here. The note in brackets gives the kind of curve behind each potency; many fits are weak.

As usually defined, the AC50 is the concentration giving half of the maximal activity seen. Lower therefore signals activity at low concentration. For the compound `COc1ccc(Nc2nc(-c3sc(C)nc3C)cs2)cc1`, the cell number change was -13.3%. Further, under setting [1], the concentration at half-maximal activity (AC50) is 16.4 µM [rising, single point]. As for `CCn1nc(NS(=O)(=O)c2ccc([N+](=O)[O-])cc2)c2cc3cccc(C)c3nc21`, the half-maximal activity concentration (AC50) under setting [1] is 1.64 µM [falling, partial curve]. For `COc1cccc(NC(=O)c2ncc(Cl)c(Cl)c2Cl)c1`, the cell number change is -44.5%. Moreover, the AC50 under setting [2] is 0.00651 µM [falling, full curve, poor fit]. In addition, the concentration at half-maximal activity (AC50) under setting [1] is 0.164 µM [falling, full curve]. Take `Cc1ccc(NS(=O)(=O)c2cccc(C(=O)NCC(c3cccs3)N3CCOCC3)c2)cc1` (configuration not stated): the cell number change came out at 8.01%. In addition, the AC50 under setting [1] was 0.411 µM [falling, single point]. `Cn1c(N)c(C(=O)COC(=O)CNC(=O)c2ccccc2Cl)c(=O)n(C)c1=O`: the cell number change was -1.78%. The half-maximal activity concentration (AC50) under setting [2] was 6.51 µM [falling, single point]. Also, the AC50 under setting [1] was 6.51 µM [falling, single point]. As to `CCc1ccc2c(c1)cc(CN(C(=S)Nc1ccccc1C)C1CC1)c1nnnn12`, the AC50 under setting [2] was 0.231 µM [rising, full curve, poor fit]. As to `COc1ccccc1N1N=C(c2ccc([N+](=O)[O-])cc2)CC1c1ccccc1` (configuration not stated), the cell number change was -18.6%. Further, under setting [2], the half-maximal activity concentration (AC50) was 4.11 µM [rising, partial curve]. The AC50 under setting [1] is 0.58 µM [falling, full curve].

As to `O=C(Nc1ccc(Cl)c(Cl)c1)C1=Cc2ccccc2OC1`, the cell number change was -27.7%. Also, the AC50 under setting [1] is 0.731 µM [rising, full curve, poor fit]. Turning to `CCCCN(C(=O)C1CCN(C(=O)c2ccccc2C)CC1)c1c(N)n(CCCC)c(=O)[nH]c1=O`, the cell number change was 23.4%. Further, under setting [1], the concentration at half-maximal activity (AC50) is 0.0651 µM [rising, full curve, poor fit]. In the case of `O=C(C1CCCN1C(=O)c1cccs1)N1CCN(Cc2ccc3c(c2)OCO3)CC1` (configuration not stated), the concentration at half-maximal activity (AC50) was 6.51 µM [rising, single point] under setting [2] and 0.651 µM [rising, full curve] under setting [1]. With `Cc1ccc2c(Cn3ccnc3)cc(=O)oc2c1C`, the concentration at half-maximal activity (AC50) under setting [1] is 0.58 µM [rising, single point]. As for `On1c(-c2ccco2)nc2c1CCc1nonc1-2`, the cell number change is 13.8%. In addition, under setting [2], the concentration at half-maximal activity (AC50) is 3.66 µM [rising, partial curve, poor fit]. Consider `CC(=O)N1c2ccc(S(=O)(=O)N3CCC(C(=O)Nc4cccc(C(F)(F)F)c4)CC3)cc2CC1C` (configuration not stated), for which the cell number change was -10.4%. Besides, the concentration at half-maximal activity (AC50) under setting [1] was 0.58 µM [falling, single point]. In the case of `Cc1nn(-c2ccccc2)c(C)c1/C=C1\C(=O)N(C)C(=S)N1C`, the cell number change stood at 2.93%. For the same compound, under setting [2], the concentration at half-maximal activity (AC50) was 0.164 µM [falling, full curve, poor fit]. In addition, the AC50 under setting [1] was 6.51 µM [falling, single point].

In the case of `Cc1cc(C(=O)Nc2ccccn2)no1`, the cell number change was -6.98%. Moreover, under setting [2], the half-maximal activity concentration (AC50) is 6.51 µM [falling, single point]. As to `CC1CCCCN1S(=O)(=O)c1ccc(NC(=O)c2cccc(-n3cnnn3)c2)cc1` (configuration not stated), the cell number change is -5.02%. Turning to `Cc1nn2c(N)c(C#N)cnc2c1-c1ccc(Cl)cc1`, the cell number change was -9.18%. Moreover, the AC50 under setting [2] was 0.82 µM [rising, full curve, poor fit]. In addition, the concentration at half-maximal activity (AC50) under setting [1] was 0.82 µM [rising, full curve].

As to `C/C(=N\NC(N)=O)C1CC(Cc2ccccc2)C(=O)O1` (configuration not stated), the cell number change was -17%. The same measure, in the same setting: to `COc1ccc(OC)c(-c2cc(C(=O)NCc3ccco3)no2)c1` belongs 0.893%. For `Cc1cc(C(=O)NCc2cccnc2)n(-c2ccccc2)n1`, the cell number change was -30.2%. Under setting [2], the concentration at half-maximal activity (AC50) was 29.1 µM [falling, single point]. Take `CCNC(=O)NC(=O)CSc1ccccc1F`: the cell number change was -13.6%. Besides, the concentration at half-maximal activity (AC50) under setting [1] is 0.0326 µM [falling, full curve, poor fit]. With `CCC(O)C1CCN(C(=O)c2cc(COc3ccc(F)cc3F)on2)CC1` (configuration not stated), the cell number change was -35.7%. In addition, the half-maximal activity concentration (AC50) under setting [2] is 32.6 µM [falling, single point]. For the same compound, the AC50 under setting [1] is 9.2 µM [rising, partial curve, poor fit]. Consider `Cc1csc2nc(CSc3ccc(Cl)cc3)cn12`, for which the AC50 under setting [1] is 2.06 µM [rising, single point]. Turning to `CCOC(=O)C(CCC(C)=O)C(=O)c1ccccc1` (configuration not stated), the cell number change came to 11%. The half-maximal activity concentration (AC50) under setting [1] is 5.8 µM [rising, full curve]. Consider `NC(=O)SC/C(=N\S(=O)(=O)c1ccccc1)Nc1ccccc1`, for which the cell number change is 5.7%. For the same compound, the AC50 under setting [1] was 1.46 µM [falling, full curve]. On to `Cc1nc(SCc2c(F)cccc2Cl)n[nH]1`, for which the cell number change stood at 11.9%. The concentration at half-maximal activity (AC50) under setting [1] was 20.6 µM [rising, single point]. On to `CCN(CC)c1ccc(/C=N/Nc2nc3ccccc3[nH]2)cc1`, for which the cell number change was -73.4%. Moreover, the AC50 under setting [2] is 5.8 µM [falling, full curve]. Besides, the AC50 under setting [1] was 2.59 µM [falling, full curve]. For the compound `O=C(C1CCCCC1)N1CCC(n2nnc3ccccc32)CC1`, the cell number change was 19.6%. The AC50 under setting [1] is 5.8 µM [rising, full curve, poor fit]. As to `CCC1CCc2c(sc(NC(=O)c3ccoc3C)c2C(N)=O)C1` (configuration not stated), the cell number change was -42.9%. Besides, the AC50 under setting [2] is 29.1 µM [falling, single point]. With `Cc1ccc(S(=O)(=O)NC2=NCN(Cc3ccccc3)CN2)cc1`, the cell number change was -4.96%. Moreover, the AC50 under setting [1] was 23.1 µM [falling, partial curve]. For `CC(=O)c1ccc(NC(=O)CSc2nc(C3CC3)nc3ccccc23)cc1`, the cell number change was 153%. Moreover, the concentration at half-maximal activity (AC50) under setting [2] was 29.1 µM [rising, single point]. `COc1ccc2nc3sc(C(=O)NCc4cccs4)c(N)c3cc2c1`: the cell number change was -34.9%. The AC50 under setting [2] is 4.11 µM [falling, full curve]. Further, the concentration at half-maximal activity (AC50) under setting [1] was 4.11 µM [falling, single point]. As to `COC(=O)C(NC(=O)C(CC(C)C)NC(=O)C1CCC(C)CC1)C(C)C` (configuration not stated), the cell number change was 17.5%. Same read-out and setting: the same measure for `Cc1ccc(NS(=O)(=O)c2cc(NC(=O)c3ccc4c(c3)NC(=O)CS4)ccc2C)c(C)c1`: 81.5%. With `Cc1ccc(C)n1C(Cc1ccccc1)C(=O)O` (configuration not stated), the cell number change came out at 2.01%. Also, under setting [2], the AC50 was 1.84 µM [rising, partial curve]. Regarding `C/C=C/C(=O)OCC(=O)NC(=O)NC(C)C`, the cell number change was -36.7%. The concentration at half-maximal activity (AC50) under setting [2] was 0.00461 µM [falling, full curve, poor fit]. The AC50 under setting [1] is 25.9 µM [falling, partial curve]. `Cc1ccccc1C1=NC(c2ccc(F)cc2F)ON1` (configuration not stated): the cell number change turned out to be 18.9%. In addition, under setting [1], the AC50 is 6.51 µM [rising, single point]. With `Cc1cc(C(C)(C)C)oc1C(=O)N1CCN(C(=O)c2oc(C(C)(C)C)cc2C)CC1`, the cell number change was -9.59%. Under setting [1], the concentration at half-maximal activity (AC50) was 18.4 µM [falling, single point]. Regarding `Cc1cccc(-n2cc(C(=O)O)c(=O)cc2C)c1`, the AC50 runs as follows: under setting [2], 0.58 µM [falling, single point]; under setting [1], 0.58 µM [falling, single point].

For the compound `COc1ccc2c3c([nH]c2c1)C(C)N(CCC(=O)NN)CC3` (configuration not stated), the cell number change was determined as 31.6%. Moreover, under setting [1], the half-maximal activity concentration (AC50) is 6.51 µM [rising, single point]. Regarding `S=C(c1ccc2c(c1)OCO2)N1CCCCCC1`, the cell number change amounted to 5.34%. For the same compound, the AC50 under setting [2] was 3.66 µM [falling, single point]. For the same compound, the AC50 under setting [1] was 6.51 µM [falling, single point]. On to `Cc1c(/C=C/C(=O)c2ccc(Cl)s2)cnn1C`, for which the cell number change is -26%. Besides, the half-maximal activity concentration (AC50) under setting [1] is 29.1 µM [falling, single point].

With `CCOc1ccc(N(C(C)C(=O)N/N=C(\C)C(C)(C)C)S(C)(=O)=O)cc1` (configuration not stated), the cell number change was found to be 1.36%. Besides, the half-maximal activity concentration (AC50) under setting [1] is 1.64 µM [falling, partial curve]. For `COc1ccc(Cc2nnc(NC(=O)CSc3ccc(C)cc3)s2)cc1`, the cell number change was -33.3%. For the same compound, the concentration at half-maximal activity (AC50) under setting [2] is 1.84 µM [falling, single point]. The half-maximal activity concentration (AC50) under setting [1] is 4.61 µM [falling, full curve, poor fit]. As for `CCCn1c(=O)[nH]c(=O)c2c(C(=O)OCC)cc(-c3cccs3)nc21`, the AC50 under setting [1] was 0.231 µM [falling, partial curve, poor fit].

In the case of `Cc1nn(-c2ccccc2)c(Cl)c1C(=O)NC1CCCCC1`, the cell number change was determined as 1.62%. Besides, under setting [1], the half-maximal activity concentration (AC50) is 18.4 µM [rising, single point]. Consider `CC1CCN(S(=O)(=O)c2ccc(NC(=O)CCN3C(=O)c4ccccc4C3=O)cc2)CC1`, for which the cell number change was -36.5%. The AC50 under setting [2] is 0.517 µM [falling, full curve, poor fit]. The AC50 under setting [1] is 7.31 µM [falling, partial curve].

On to `COc1cc(/C=C/C(=O)OCC(=O)Nc2ccc(S(N)(=O)=O)cc2)ccc1O`, for which the cell number change turned out to be 11.1%. The AC50 under setting [1] is 0.92 µM [rising, full curve, poor fit]. With `O=C(OCCN1C(=O)c2ccccc2C1=O)c1cnccn1`, the cell number change was determined as 8.12%. Further, the AC50 under setting [1] was 0.517 µM [rising, full curve]. In the case of `CSc1ccc(Cl)c(C(=O)NNC(=O)c2csc(N3CCOCC3)n2)c1`, the cell number change is -21.5%. Take `O=S(=O)(c1ccc(Cl)cc1)N1CCCC(c2nc(-c3ccc(F)cc3)no2)C1` (configuration not stated): the cell number change is -13.5%. Also, the AC50 under setting [1] is 29.1 µM [falling, single point]. Take `Cc1ccc(CNC(=O)C2CCC(=O)N2C(C)C)cc1` (configuration not stated): the cell number change stood at 25.5%. Besides, the concentration at half-maximal activity (AC50) under setting [1] is 8.2 µM [rising, partial curve]. Turning to `O=C(Nc1ccccc1N1CCOCC1)c1ccc2c(c1)OCO2`, the cell number change was 2.79%. `Cc1ccc(C(C(=O)NC(C)(C)C)N(Cc2ccc3c(c2)OCO3)C(=O)c2ccc(CN3CCOCC3)o2)o1` (configuration not stated): the cell number change is -39.1%. In addition, the half-maximal activity concentration (AC50) under setting [2] is 16.4 µM [falling, partial curve]. The half-maximal activity concentration (AC50) under setting [1] is 9.2 µM [falling, partial curve]. With `CCc1ccc(OCC(=O)Oc2ccc([N+](=O)[O-])cc2)cc1`, the cell number change was -0.293%. Besides, under setting [1], the half-maximal activity concentration (AC50) was 29.1 µM [rising, single point]. Take `COc1ccc(-n2c(=S)[nH]c3cc(C(=O)NCc4cccnc4)ccc3c2=O)cc1`: the cell number change was 23.5%. Still for that read-out and setting: the same measure for `O=C(CCc1ccccc1)Nc1cccc(-c2nnc(-c3ccco3)o2)c1`: 55.3%; for `O=C(Nc1ccc(S(=O)(=O)Nc2cnc3ccccc3n2)cc1)c1cc(F)c(F)cc1Cl`: -10.3%.

With `COCCNc1nc(N2CCCCC2)c2cnn(C)c2n1`, the cell number change was -18.8%. `COCCN(C(=O)CCSc1ccc(F)cc1)c1c(N)n(Cc2ccccc2)c(=O)[nH]c1=O`: the cell number change is 0.259%. For the same compound, the AC50 under setting [1] was 0.517 µM [falling, single point].

The record behind these values is PubChem BioAssay AID2685 (National Center for Advancing Translational Sciences (NCATS), 2010).
